These results are taken from US10545077B2, “Solid phase microextraction coating” (JP SCIENTIFIC LIMITED, priority 2016, dated 2020).

Each structure is given as a SMILES string.

One data set can be described thus: Analysis of banned drugs in phosphate buffer using PTFE AF2400/HLB fiber and LC-MS/MS.
Conditions: not given
In turn, `C[C@]12Cc3c[nH]nc3C[C@@H]1CC[C@@H]1[C@@H]2CC[C@@]2(C)[C@H]1CC[C@]2(C)O` [Stanozolol] showed an LOQ of 5.0 ng/mL.
`C[C@]12CC[C@H]3[C@@H](CCC4=CC(=O)CC[C@@]43C)[C@@H]1CC[C@@H]2O` [Testosterone] displayed an LOQ of 1.0 ng/mL.
Take `C[C@]12C=CC3=C4CCC(=O)C=C4CCC3C1CC[C@@H]2O` (stereo partly drawn) [Trenbolone]: the LOQ turned out to be 5.0 ng/mL.

Staying with this data set, now noted: extraction time 30 min, desorption time 30 min; phosphate buffer.
Consider `C[C@]12C=CC(=O)C=C1CC[C@@H]1[C@@H]2[C@@H](O)C[C@@]2(C)[C@H]1CC[C@]2(O)C(=O)CO` [Prednisolone], for which the LOQ worked out at 5.0 ng/mL.
`CC(C)NCC(O)COc1cccc2ccccc12` (stereo not drawn) [Propranolol]: the LOQ was determined as 5.0 ng/mL.
Consider `CC(C)(C)NCC(O)c1ccc(O)c(CO)c1` (stereo not drawn) [Salbutamol], for which the LOQ was 1.0 ng/mL.
